Record: PubChem BioAssay AID1259254 (NCATS, 2017)

- Screen: 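Gene knock-downs that lead to re-replication, shown by excess G2 DNA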 (primary screen)
- Cell system: human HCT116 colorectal cancer cells
- Reagents: single siRNA against human genes
- Timing: 3 days
- Detection: 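Nuclei stained with Hoechst and imaged; cell-cycle phase assigned by DNA content; G2 share scaled per plate, non-targeting siRNA 0%, GMNN siRNA 100%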
- Scale: G2 robust z-score: higher = more G2 cells, more excess DNA replication
- Active means: 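Active siRNAs have a G2 robust z of 5 or more median absolute deviations over the median, which in these data means about 38% or higher of GMNN control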
Shown is one part, drawn at random, of about 59,000 reagents. Over the whole deposit, about 1,550 (2.6%) got an active call. 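G2 share is only a proxy for re-replication; each gene was hit by three separate siRNAs, and active genes were retested.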 A number with no mark means an inactive call. Reagents against one gene are numbered here. Further read-outs or replicates are left out here. Not stated in the record: the amount of reagent.

How did the screen score MECP2 #1?
G2 robust z-score: 0.464

For MECP2 #2, what does the deposit list?
G2 robust z-score: -1.03

What is on record for MECP2 #3?
G2 robust z-score: -0.639

For TGM5 #1, how do the results read?
G2 robust z-score: -1.29

What is on record for TGM5 #2?
G2 robust z-score: -0.59

Which result is listed for TGM5 #3?
G2 robust z-score: -0.483

For VIPR2 #1, what does the deposit list?
G2 robust z-score: 2.54

Which result is listed for VIPR2 #2?
G2 robust z-score: -0.399

For VIPR2 #3, how do the results read?
G2 robust z-score: 1.2

How did the screen score MAN1C1 #1?
G2 robust z-score: -0.663

With MAN1C1 #2, what does the deposit list?
G2 robust z-score: -1.31

What did the screen give for MAN1C1 #3?
G2 robust z-score: -0.722

What is on record for PGLYRP1 #1?
G2 robust z-score: -1.23

With PGLYRP1 #2, what was measured?
G2 robust z-score: -0.225

With PGLYRP1 #3, what does the deposit list?
G2 robust z-score: -0.912

For OSCAR #1, what was measured?
G2 robust z-score: -0.052

What did the screen give for OSCAR #2?
G2 robust z-score: 0.832

For OSCAR #3, what was measured?
G2 robust z-score: -0.0948

2 consecutive entries already listed, quoted:
PGLYRP1 #2 | G2 robust z-score: -0.225
PGLYRP1 #3 | G2 robust z-score: -0.912
